The full ranking holds about 33,000 sequences; the median of “E-score (-0.5 to 0.5)” is about -0.016, and the highest 2% start at about 0.3. The list shows a part of the results.
Biological target: T1, Yer184c (UniProt P39961)
T1 sequence: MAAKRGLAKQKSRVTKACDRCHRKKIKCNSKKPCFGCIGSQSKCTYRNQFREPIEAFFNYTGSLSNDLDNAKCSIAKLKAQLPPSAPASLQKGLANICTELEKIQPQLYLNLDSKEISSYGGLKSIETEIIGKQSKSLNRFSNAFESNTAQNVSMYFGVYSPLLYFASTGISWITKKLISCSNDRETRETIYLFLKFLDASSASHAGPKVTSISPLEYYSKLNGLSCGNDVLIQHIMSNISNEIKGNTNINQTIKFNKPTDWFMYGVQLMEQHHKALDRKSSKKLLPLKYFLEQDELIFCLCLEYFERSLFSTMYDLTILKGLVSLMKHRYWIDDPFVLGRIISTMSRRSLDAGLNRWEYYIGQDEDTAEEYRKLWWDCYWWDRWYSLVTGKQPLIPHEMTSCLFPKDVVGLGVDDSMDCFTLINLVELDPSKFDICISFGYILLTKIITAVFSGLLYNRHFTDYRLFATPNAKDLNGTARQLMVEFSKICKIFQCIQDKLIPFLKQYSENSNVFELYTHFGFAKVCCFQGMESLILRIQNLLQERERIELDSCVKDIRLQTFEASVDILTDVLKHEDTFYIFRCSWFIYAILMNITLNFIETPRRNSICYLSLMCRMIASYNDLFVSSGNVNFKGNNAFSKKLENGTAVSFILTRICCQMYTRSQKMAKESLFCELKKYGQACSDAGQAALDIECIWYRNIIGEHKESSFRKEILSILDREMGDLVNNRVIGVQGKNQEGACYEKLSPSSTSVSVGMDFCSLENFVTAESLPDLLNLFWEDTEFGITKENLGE
Test: PBM E-score (8-mer binding enrichment) (E-score (-0.5 to 0.5)); higher = stronger / more preferred TF binding
Conditions: protein concentration: 100 nM; construct: GST-full length
Procedure: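 Universal 'all 10-mer' protein binding microarrays (Agilent AMADID 015681) probed with GST-tagged S. cerevisiae TFs (full-length or DBD) made by in vitro transcription/translation (PURExpress), about 100-200 nM. Bound TF was detected with fluorescent anti-GST. Each ungapped 8-mer (which stands for itself and its reverse complement) is scored by the PBM enrichment score (E-score), a modified Wilcoxon-Mann-Whitney statistic from -0.5 to +0.5, computed with the Universal PBM Analysis Suite. Scale: above 0.35 generally sequence-specific binding.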

Row | Sequence | PBM E-score
1 | AAAGTTCA | 0.125
2 | ACTTTACG | 0.00111
3 | TGCCAAAA | 0.097
4 | GTATTAAC | 0.133
5 | CGTGGGAA | -0.137
6 | AAATTATT | 0.212
7 | CCCGAATA | 0.196
8 | AAGTAGAC | 0.0714
9 | ACACAGGG | -0.213
10 | GGGCTTGA | -0.0787
11 | CCAATTGC | -0.105
12 | TGCTGTAA | 0.182
13 | CATGGCAA | -0.141
14 | AACCTGAA | -0.192
15 | GCCGAACA | 0.329
16 | TTCAACAA | 0.239
17 | CCAACTAG | -0.157
18 | AGGCCGAA | 0.302
19 | GACATTAC | 0.105
20 | CACATCCC | -0.128
21 | GGCGATAA | -0.0853
22 | ATGATGAA | 0.194

Row | Sequence | PBM E-score
23 | CATAGTGG | -0.224
24 | AGAAGCAG | -0.00452
25 | CTCTGGTA | -0.203
26 | AGCCGTGG | -0.0282
27 | GACGAGGA | 0.0167
28 | ACAAGGTG | 0.0514
29 | ACCAACTG | -0.164
30 | TATCGCGA | 0.159
31 | AGATCGTC | -0.181
32 | AGCAGATA | 0.0297
33 | CTTGCATA | -0.0489
34 | GACTCAAC | 0.0381
35 | ATTTTGAA | 0.255
36 | ATTTACGG | 0.216
37 | GATACAAC | 0.213
38 | CCACTAAC | -0.0716
39 | TGCATGAA | 0.023
40 | CACCGTCG | -0.0401
41 | ATTTAGCC | 0.0558
42 | CCATTTAC | 0.0263
43 | AAAGAGGT | 0.0641
44 | ACCACTAT | -0.156

Row | Sequence | PBM E-score
45 | AAGGGATT | -0.111
46 | ACTGAGGA | -0.0152
47 | ACCCAGCG | -0.131
48 | GAGATGGC | 0.128
49 | GTCCAGAA | 0.0596
50 | CATAGCGA | -0.0576
51 | CGTCACCC | -0.257
52 | AGGTGGGG | -0.17
53 | GTCCCTGA | -0.278
54 | CACAGTTC | 0.012
55 | CACTTTCG | 0.0177
56 | AAAATGGC | 0.0159
57 | TGCATTAA | 0.12
58 | TCTTACCA | -0.0281
59 | CCGGCAAC | 0.293
60 | AGGGACGA | 0.0287
61 | CAAGTAGA | -0.0482
62 | CTAGGAAA | -0.0006
63 | ATGACTGG | -0.184
64 | CCGTCCCG | 0.0888
65 | CCTTATGC | -0.0769
66 | GAGCTATC | -0.081

Row | Sequence | PBM E-score
67 | GCGGCGGA | 0.193
68 | TAATAGAA | 0.187
69 | AGTCGAGG | -0.209
70 | ACTTACCA | -0.108
71 | CCTTGGGA | 0.035
72 | ACCCCGAC | -0.0878
73 | CGGGCTAA | 0.0904
74 | GAACGAAC | 0.0755
75 | AAAGTCCA | -0.0162
76 | AGCCTGGA | -0.221
77 | AATCCCTA | -0.0697
78 | ACTATCCT | -0.225
79 | AGGGCTAG | -0.243
80 | CTCAACTA | 0.112
81 | AGGGTCAG | -0.273
82 | AGACAGAC | 0.161
83 | ATATAGAA | 0.188
84 | GTAGACTA | -0.11
85 | TAATGCCA | 0.0632
86 | GCCTCAAC | 0.00399
87 | ACTTCCTG | -0.118
88 | ATACTTAC | 0.197

Row | Sequence | PBM E-score
89 | GAATCAAA | 0.0657
90 | CGATGCAG | -0.202
91 | TAGACACA | -0.0462
92 | AGTTGTCA | 0.179
93 | TCTATCCA | 0.0326
94 | ATAAGGGG | -0.2
95 | ACTTATCA | -0.067
96 | CCTACCGC | -0.106
97 | AGGTGTTC | -0.121
98 | CAGGGGGG | -0.447
99 | AGCTATTG | 0.013
100 | AAGAAGAA | 0.0751
101 | GCGATATA | 0.0164
102 | ATGTCGCA | -0.0211
103 | CAGAGGGA | -0.254
104 | CGGAACAC | 0.356
105 | ATACGCGC | -0.00369
106 | AGTCGTTG | -0.222
107 | CCACGCTA | -0.148
108 | CAGTGTCA | -0.0526
109 | CTCTACGA | -0.197
110 | TACATAGA | -0.0207

Some of the entries above in a different format:

| Row | Sequence | PBM E-score |
| --- | --- | --- |
| 21 | GGCGATAA | -0.0853 |
| 24 | AGAAGCAG | -0.00452 |
| 28 | ACAAGGTG | 0.0514 |
| 54 | CACAGTTC | 0.012 |
| 65 | CCTTATGC | -0.0769 |
| 74 | GAACGAAC | 0.0755 |
| 110 | TACATAGA | -0.0207 |
